# PubChem BioAssay AID1224831 – NIAID | 2016
# Test: 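Confirming genome-wide hits on LPS-triggered TNF-alpha induction with independent siRNA sequences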 (follow-up of hits)
# Cell system: human THP-1 B5 monocytic leukaemia cells carrying a TNF promoter luciferase reporter, made macrophage-like with PMA
# Knock-down reagent: single siRNA against human genes, 50 nM
# Timing: about 68 h of knock-down, then 4 h LPS
# Conditions: LPS (Salmonella minnesota, TLR-grade) at 10 ng/ml for 4 h; PMA 5 ng/ml present during knock-down
# Detection: 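TNF promoter reporter read as dual luciferase ratio after 4 h LPS, normalised per plate to its median, given as replicate mean robust z-score per siRNA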
# Reading the numbers: TNF reporter z-score: higher = stronger LPS-induced TNF reporter signal; z-score, median over gene's siRNAs: higher = stronger TNF reporter signal across the gene's siRNAs
# Active means: 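Active when the replicate mean z-score is about -1 or lower, or about 1.5 or higher; lowered and raised TNF reporter signal both count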
# Meaning of the calls: active = changed TNF reporter (either direction); inactive = little change
# Here is an unselected part of about 3,500 deposited reagents. 731 of them (21%) count as active. 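Active means either lowered or raised reporter signal; the gene-median score did not drive the per-siRNA calls.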 A number with no mark means an inactive call. The numbers tell different reagents against one gene apart.
"TNF reporter z-score, replicate mean","z-score, median over gene's siRNAs",gene knocked down,siRNA no.
-1.1 (active),0.37,FSAF1,1
0.6,0.37,FSAF1,2
0.32,0.37,FSAF1,3
0.57,0.37,FSAF1,4
0.34,0.37,FSAF1,5
0.4,0.37,FSAF1,6
-2.45 (active),-0.755,ZBTB46,1
-0.64,-0.755,ZBTB46,2
-0.67,-0.755,ZBTB46,3
-1.2 (active),-0.755,ZBTB46,4
1.26,-0.755,ZBTB46,5
-0.84,-0.755,ZBTB46,6
-0.11,0.135,TGOLN2,1
3.26 (active),0.135,TGOLN2,2
-0.93,0.135,TGOLN2,3
0.27,0.135,TGOLN2,4
2.49 (active),0.135,TGOLN2,5
0,0.135,TGOLN2,6
3.15 (active),1.27,TCF19,1
1.91 (active),1.27,TCF19,2
1.36,1.27,TCF19,3
1.18,1.27,TCF19,4
-0.06,1.27,TCF19,5
0.17,1.27,TCF19,6
-0.11,0.32,MEX3D,1
0.75,0.32,MEX3D,2
-1.82 (active),0.32,MEX3D,3
1.15,0.32,MEX3D,4
-0.51,0.32,MEX3D,5
1.19,0.32,MEX3D,6
-1.07 (active),0.64,MXD3,1
4.24 (active),0.64,MXD3,2
0.33,0.64,MXD3,3
4.08 (active),0.64,MXD3,4
0.3,0.64,MXD3,5
0.95,0.64,MXD3,6
0.59,0.575,GUCY2D,1
2.33 (active),0.575,GUCY2D,2
-0.08,0.575,GUCY2D,3
0.56,0.575,GUCY2D,4
6.62 (active),0.575,GUCY2D,5
-0.09,0.575,GUCY2D,6
0.27,0.51,SUV39H2,1
1.74 (active),0.51,SUV39H2,2
0.05,0.51,SUV39H2,3
0.43,0.51,SUV39H2,4
0.59,0.51,SUV39H2,5
0.78,0.51,SUV39H2,6
0.17,-0.02,NRBP2,1
-0.21,-0.02,NRBP2,2
-1.77 (active),-0.02,NRBP2,3
0.86,-0.02,NRBP2,4
-0.73,-0.02,NRBP2,5
2.13 (active),-0.02,NRBP2,6
-0.44,0.185,GLI2,1
0.82,0.185,GLI2,2
1.1,0.185,GLI2,3
0.29,0.185,GLI2,4
0.08,0.185,GLI2,5
-0.62,0.185,GLI2,6

Records listed so far with an active call, once more:
"TNF reporter z-score, replicate mean","z-score, median over gene's siRNAs",gene knocked down,siRNA no.
-1.1 (active),0.37,FSAF1,1
-2.45 (active),-0.755,ZBTB46,1
-1.2 (active),-0.755,ZBTB46,4
3.26 (active),0.135,TGOLN2,2
2.49 (active),0.135,TGOLN2,5
3.15 (active),1.27,TCF19,1
1.91 (active),1.27,TCF19,2
-1.82 (active),0.32,MEX3D,3
-1.07 (active),0.64,MXD3,1
4.24 (active),0.64,MXD3,2
4.08 (active),0.64,MXD3,4
2.33 (active),0.575,GUCY2D,2
6.62 (active),0.575,GUCY2D,5
1.74 (active),0.51,SUV39H2,2
-1.77 (active),-0.02,NRBP2,3
2.13 (active),-0.02,NRBP2,6
